# Laboratory results published in article PMC7819943, “Rice protein-binding microarrays: a tool to detect cis-acting elements near promoter regions in rice”.
# Protein sequences, listed by entry. Tags and fused reporters are not part of them.
# UniProt Q0JBA9, entry or part of it: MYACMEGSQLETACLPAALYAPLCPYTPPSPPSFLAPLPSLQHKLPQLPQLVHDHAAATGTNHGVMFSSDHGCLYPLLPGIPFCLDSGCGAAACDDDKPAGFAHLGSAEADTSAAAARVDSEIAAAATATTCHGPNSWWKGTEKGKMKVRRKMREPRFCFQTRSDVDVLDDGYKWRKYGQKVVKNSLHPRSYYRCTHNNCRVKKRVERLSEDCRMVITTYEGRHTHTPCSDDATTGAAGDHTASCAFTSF
# Some of the results follow.
# Target: OsWRKY34 (Oryza sativa, UniProt Q0JBA9 1-250)
# Assay: protein-binding microarray (RPBM); PBS, 2% BSA, 51.3 ng/ul salmon testes DNA, 50 uM zinc acetate, 200 nM TF, 25 C, 1 h; high values mean tight binding
# Conditions: protein: recombinant; tags: N-terminal polyhistidine and DsRed monomer fusion (pET32a); label: CyDye5-dUTP incorporated in the synthesized complementary strand; 3' TTTTT single-stranded linker to array surface; dsDNA, one strand shown
# Method in brief: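 Transcription factors were made in E. coli BL21-CodonPlus as N-terminal fusions to a polyhistidine tag and DsRed, then purified on Ni–NTA. After primer extension with Cy5-dUTP and blocking with 2% BSA, a custom Agilent array was exposed for 1 h at 25 °C to 200 nM protein in PBS, 2% BSA, salmon testes DNA and 50 µM zinc acetate. Washed arrays were scanned on an Axon 4000B, and the binding signal is per-feature fluorescence intensity in arbitrary units.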
row,Sequence,binding signal
1,CGCTCTTCTACCTTTGGCCTCAGTTCTTCAACACAACGTTCGGAGTCACCTAGTGCAG,8990 fluorescence intensity (a.u.)
2,ACATCTCTCCAACCAATACTCTGTCCAGACATTTGAAACACGGAGTCACCTAGTGCAG,8830 fluorescence intensity (a.u.)
3,CATCCGCATCTTCTTCCTCGTTTGACATTGCCCCTGTTGCCGGAGTCACCTAGTGCAG,8760 fluorescence intensity (a.u.)
4,AGATGGGCAAGTCTTTATACTCGGTTTTGTGATCGAGGGGCGGAGTCACCTAGTGCAG,9490 fluorescence intensity (a.u.)
5,TCCATGCATCTTGTGTTTCTTGTGACCTCTAGGCACTCAACGGAGTCACCTAGTGCAG,8260 fluorescence intensity (a.u.)
6,CACACACACAAAGGCACTCTCTCTTCTTCTCTTTCTACTACGGAGTCACCTAGTGCAG,9560 fluorescence intensity (a.u.)
7,CAAGTCACGTATAAAATATTAATCATGTTTTATCATCTAACGGAGTCACCTAGTGCAG,8050 fluorescence intensity (a.u.)
8,ACCGACTCAAAAACCTAACGGCACTTTTTTTATTTTCAACCGGAGTCACCTAGTGCAG,10600 fluorescence intensity (a.u.)
9,GAGCTTTGTATATAATTTGGTCCATTTTTTTTAAAAAAATCGGAGTCACCTAGTGCAG,9830 fluorescence intensity (a.u.)
10,GTTGGTTGCCACCACCATTCCACTAAGTCCGTTCCCATGCCGGAGTCACCTAGTGCAG,8480 fluorescence intensity (a.u.)
11,CGACACATGACTTCACCGCCTGACGCCGCCTCACCACCCACGGAGTCACCTAGTGCAG,9650 fluorescence intensity (a.u.)
12,TTCCGTGGGTGCTTCAAACAATTTTGTGTTCTCTATATTACGGAGTCACCTAGTGCAG,8940 fluorescence intensity (a.u.)
13,TGCACTGTGACTTCTGACTGTTATAAATTGTGTTCTCTTGCGGAGTCACCTAGTGCAG,8730 fluorescence intensity (a.u.)
14,TTCGATTCCATTCCTCTACTTTTCTCGGTCAGTGGACATCCGGAGTCACCTAGTGCAG,10700 fluorescence intensity (a.u.)
15,AAACTGCAATTTGCACCGAGTAATAGTATTTGTGTGTTTTCGGAGTCACCTAGTGCAG,10400 fluorescence intensity (a.u.)
16,GCCCATGATCATCATACATCCATACACAACGAGTGTTAGTCGGAGTCACCTAGTGCAG,8940 fluorescence intensity (a.u.)
17,GCCTAGTCTAGTTTTTATGTGTTCACTGATGATTTTTAAACGGAGTCACCTAGTGCAG,8910 fluorescence intensity (a.u.)
18,TCCACCGTCCAAGCCAGATCCAACGGCCCACATCCGATCCCGGAGTCACCTAGTGCAG,10400 fluorescence intensity (a.u.)
19,ATAGCCAGCTTCCTTTCTTCTTCGTCACACCGACTTAACACGGAGTCACCTAGTGCAG,9110 fluorescence intensity (a.u.)
20,GTTTTTCCTCGTCCTGTGCACGCCAAGATTTCCCAAGAAACGGAGTCACCTAGTGCAG,9650 fluorescence intensity (a.u.)
21,CATAAATAGGAGTGACATTTTTTTATTTGCCATATTTGTACGGAGTCACCTAGTGCAG,8380 fluorescence intensity (a.u.)
22,TTCTGAATCGATCAAGCAACTCCATCTCCTAGCTAGGCCTCGGAGTCACCTAGTGCAG,8100 fluorescence intensity (a.u.)
23,AATACATTTCGCATGTTCTATTGCATCCTTTGAAGGCGATCGGAGTCACCTAGTGCAG,8160 fluorescence intensity (a.u.)
24,CCTGGTGATTGTGGGGCTCTACCTTGTTCTGTGGGGCAAACGGAGTCACCTAGTGCAG,11600 fluorescence intensity (a.u.)
25,TAATGGGTGCTGTCCTGTTGCATATTCTATCCGTTCTATACGGAGTCACCTAGTGCAG,10600 fluorescence intensity (a.u.)
26,TTGCACACCCTCTCATGCCACTCCCGTCAGTTGACCGTGTCGGAGTCACCTAGTGCAG,8840 fluorescence intensity (a.u.)
27,AATATGGAATTACCCACAACCTTTTCGATCTCTCTTTATACGGAGTCACCTAGTGCAG,8780 fluorescence intensity (a.u.)

row,Sequence,binding signal
1,AACCATGCCATTATAATTTTGCAAAGTTTGAGATATACCACGGAGTCACCTAGTGCAG,8210 fluorescence intensity (a.u.)
2,CTGCGTTTCGATCGATATCCTCTGCATGCAATTCTGACCGCGGAGTCACCTAGTGCAG,9210 fluorescence intensity (a.u.)
3,CGGACGCCGCTGCAGTACCCAATGACGACACCACCACCACCGGAGTCACCTAGTGCAG,8310 fluorescence intensity (a.u.)
4,AATTAATTTTTATTTTCTAATAAACTGTTTTAGCTTATTACGGAGTCACCTAGTGCAG,8100 fluorescence intensity (a.u.)
5,GTTTGAGTTTTCTAATTTCTGCTTTCTAATTCATTTTTTCCGGAGTCACCTAGTGCAG,9120 fluorescence intensity (a.u.)
6,TGTTTTTTTTGGGTTCTTGGGAGAGGCTCGCGCGGCTGCGCGGAGTCACCTAGTGCAG,8950 fluorescence intensity (a.u.)
7,GGTAGGAGAGTAGGGGATCTGTTGGAGTTGTTTTTTTTTTCGGAGTCACCTAGTGCAG,13300 fluorescence intensity (a.u.)
8,CGTTGTGTCAAGTGTTCCATCCTTTTGAAATATTAGCTCTCGGAGTCACCTAGTGCAG,11100 fluorescence intensity (a.u.)
9,TTTCCATTTTACTTCGTCAGCGCACACTATCTCCTGGCGCCGGAGTCACCTAGTGCAG,12600 fluorescence intensity (a.u.)
10,CTCTTCGCCGCCGCCGTCCTCCTCGCTATGCCGGGCCTCACGGAGTCACCTAGTGCAG,8120 fluorescence intensity (a.u.)
11,GGGTTTAGGTTTTTACAGGGGAATTTACATGGTTGCCCTTCGGAGTCACCTAGTGCAG,8550 fluorescence intensity (a.u.)
12,ATCTATGTTGCAACATCATCTGGCTCGCGCTCAGAACCATCGGAGTCACCTAGTGCAG,10500 fluorescence intensity (a.u.)
13,CATTCTGGAAACTACCTCACCTCTTTAGTTTGAATCTTTCCGGAGTCACCTAGTGCAG,8550 fluorescence intensity (a.u.)
14,TTGGATTGGTTTCTTTCTGCTCTGTTGCAGCTCCGTTGTCCGGAGTCACCTAGTGCAG,9560 fluorescence intensity (a.u.)
15,GTTCTTGTTTTGTTCCGGTTTCTTGCGCTAATCCATCATGCGGAGTCACCTAGTGCAG,13000 fluorescence intensity (a.u.)
16,GCATAACCTGAACATAGCAAACCAGATATGCTAGCTTTGCCGGAGTCACCTAGTGCAG,8160 fluorescence intensity (a.u.)
17,GGCACTAAATATACGTTGGTACGCTGACTTAGTCTCCCATCGGAGTCACCTAGTGCAG,9770 fluorescence intensity (a.u.)
18,TGATTTTTTAGGGAGGGGTGGTTAGTATAAGAGGGTTTTCCGGAGTCACCTAGTGCAG,20000 fluorescence intensity (a.u.)
19,GAGGAAATGCCTGGGAGGAGGAGGAGGGACTCGGGGCGGGCGGAGTCACCTAGTGCAG,13300 fluorescence intensity (a.u.)
20,CGGTGGTGGGCGCAGACGTGCGGAGGTCGCATGGCTATCGCGGAGTCACCTAGTGCAG,8060 fluorescence intensity (a.u.)
21,TGGGTTGGGAATGTCCTGGTGGACTCCATGCACTATGTTTCGGAGTCACCTAGTGCAG,10700 fluorescence intensity (a.u.)
22,GGGAGTCATGGTGGTGTTGCCAATTCTTTCTTCATTCTTGCGGAGTCACCTAGTGCAG,15800 fluorescence intensity (a.u.)
23,GGACTAGAGTGCAAATTAAGCTGGGTGTGGGTGTGGGTCTCGGAGTCACCTAGTGCAG,10400 fluorescence intensity (a.u.)
24,CAAGGTCCCATGTTTAATCCCCAACACGCTTATAATTTCTCGGAGTCACCTAGTGCAG,10300 fluorescence intensity (a.u.)
25,TCATCCGGCCCATTAACCCAATTTGTCTCTTTCGCGTCGTCGGAGTCACCTAGTGCAG,12600 fluorescence intensity (a.u.)
26,GCTGGCCACTTCACGAAGAGCTCGGTCCGTTTATTCTCACCGGAGTCACCTAGTGCAG,9610 fluorescence intensity (a.u.)
27,TGCGCGCTCGTCGACACACCACCAGTAAGCCTCACGCTTCCGGAGTCACCTAGTGCAG,8170 fluorescence intensity (a.u.)
